Results as given in PubChem BioAssay AID624297 (National Center for Advancing Translational Sciences (NCATS), 2012).
Screen size: about 340,000 compounds; about 6,200 (1.8%) were called active. The inconclusive results got no clear call from the source; some entries with a clear call stand among them for comparison. The call rests on the fitted dose curve; in most records, active means well fitted activation curve with a large enough effect; inconclusive means small, poorly fitted or top-dose-only effect; inactive means no such curve, though single readings can be large or run the other way. Potencies of inconclusive entries are doubtful fits and often do not repeat.

Experiment: A quantitative high throughput screen for small molecules that induce DNA re-replication in SW480 colon adenocarcinoma cells. Further: nearly all actives have a fitted effect of over 55% in size.
Settings: Hoechst DNA content imaging, 48 h; series mostly up to 46.1 µM
Method in brief: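 Image-based DNA-content assay: after two days of treatment, nuclei were labelled with the DNA dye Hoechst and imaged, and hits were compounds raising the count of nuclei showing high fluorescence intensity.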
Potency means the concentration at half of the fitted maximal effect.

For `CCN(CC)CC(=O)Nc1sc2c(c1C(=O)c1ccccc1C)CCC2`, which Potency is on record?
The Potency was inconclusive: 18.4 µM [activator, single point].

Which Potency does the source give for `O=S(=O)(NC1CCCCC1NS(=O)(=O)c1ccc(F)cc1)c1ccc(F)cc1` (stereo not drawn) here?
The Potency was inconclusive: 23.1 µM [activator, single point].

With `CCOC(=O)c1sc2nc(C)nc(NCc3ccc(F)cc3)c2c1C` as the compound, how does the Potency read?
Its Potency is inconclusive: 6.51 µM [activator, single point].

Which Potency does the source give for `CCOCCCNCc1ccc(OC)cc1` here?
Its Potency is “inactive”.

Which Potency does the source give for `CCCn1c(=O)c2c(nc3n2CCN3Cc2ccco2)n(C)c1=O` here?
The Potency was “inactive”.

For `COC1=C(N)C(=O)c2nc(C)ccc2C1=O`, which Potency is on record?
The Potency was inconclusive: 29.1 µM [activator, single point].

Which Potency does the source give for `COCCn1c(SCC(=O)Nc2c(C)n(C)n(-c3ccccc3)c2=O)nc2ccccc2c1=O` here?
Its Potency is inconclusive: 10.3 µM [activator, partial curve, poor fit].

With `O=C(Nc1cccc(C(=O)N2CCN(c3cccc(Cl)c3)CC2)c1)c1ccccc1` as the compound, how does the Potency read?
Its Potency is inconclusive: 0.0146 µM [activator, full curve].

With `N#Cc1c(N)nc2c(c1-c1ccc(F)cc1)c(=O)nc1sccn12` as the compound, how does the Potency read?
Its Potency is “inactive”.

For `CCOC(=O)c1ccc(NC(=S)NC2CCCC2)cc1`, which Potency is on record?
The Potency was “inactive”.

With `COC1=CC(=O)OC(C)(c2ccccc2)C1` (stereo not drawn) as the compound, how does the Potency read?
Its Potency is “inactive”.

With `CCc1ccc(N2CCN(S(=O)(=O)CC34CCC(CC3=O)C4(C)C)CC2)cc1` (stereo not drawn) as the compound, how does the Potency read?
The Potency was inconclusive: 29.1 µM [activator, single point].

Which Potency does the source give for `CN(C)c1ccc(/C=N/NC(=O)c2ccc3c(c2)OCCO3)cc1` here?
Its Potency is “inactive”.

Which Potency does the source give for `Oc1ccc(CN2CCc3ccccc3C2)c2cccnc12` here?
Its Potency is inconclusive: 0.731 µM [activator, full curve, poor fit].

For `COc1ccc(-c2nnc(NC(=O)c3ccc(S(=O)(=O)N4COCC4(C)C)cc3)o2)cc1`, which Potency is on record?
The Potency was inconclusive: 29.1 µM [activator, single point].

For `O=C(c1ccc([N+](=O)[O-])s1)N1CCCc2ccccc21`, which Potency is on record?
The Potency was active: 6.51 µM.

For `O=C(Nc1cccc(F)c1)c1ccc2c(c1)OCO2`, which Potency is on record?
Its Potency is “inactive”.

For `CCC(C)[C@H](NS(=O)(=O)c1ccc(C)cc1)C(=O)N1CCC(C(=O)N2CCC(C(N)=O)CC2)CC1` (stereo partly drawn), which Potency is on record?
Its Potency is inconclusive: 0.461 µM [activator, full curve, poor fit].

With `Cn1c(=NC(=O)CCS(=O)(=O)c2ccccc2)sc2cc(F)ccc21` as the compound, how does the Potency read?
Its Potency is inconclusive: 2.59 µM [activator, single point].

Which Potency does the source give for `COc1ccc(-c2cc(C(=O)NCCCN3CCOCC3)c3ccccc3n2)cc1OC` here?
The Potency was inconclusive: 25.9 µM [activator, partial curve, poor fit].

Which Potency does the source give for `O=C(Nc1ccc(NC(=S)NC(=O)c2ccccc2Cl)cc1)c1cccc(Cl)c1` here?
Its Potency is inconclusive: 11.6 µM [activator, partial curve, poor fit].

With `CC(C)(C)n1nnnc1C(c1ccccc1F)N1CCN(C2CCCC2)CC1` (stereo not drawn) as the compound, how does the Potency read?
Its Potency is inconclusive: 0.116 µM [activator, full curve, poor fit].

Which Potency does the source give for `O=C(CCNC(=O)c1ccccc1Cl)Nc1ccc(S(=O)(=O)Nc2nccs2)cc1` here?
Its Potency is “inactive”.

Which Potency does the source give for `O=C(Nc1ccc(OC(F)(F)F)cc1)c1cnc2n(c1=O)CCS2` here?
The Potency was “inactive”.

With `CC(=O)NN1C(=O)c2ccccc2NC1c1ccco1` (stereo not drawn) as the compound, how does the Potency read?
The Potency was inconclusive: 0.158 µM [activator, partial curve, poor fit].

Which Potency does the source give for `COc1ccc(C(=O)/C=C2/C(=O)Nc3ccccc32)cc1` here?
Its Potency is inconclusive: 16.4 µM [activator, single point].

Which Potency does the source give for `CCN(CC)CCCC(C)Nc1nccc2cccc(Cl)c12` (stereo not drawn) here?
Its Potency is inconclusive: 29.1 µM [activator, partial curve, poor fit].

For `Cc1ccc[n+](CC(=O)c2ccc(-c3ccccc3)cc2)c1`, which Potency is on record?
The Potency was “inactive”.

For `COC(=O)c1[nH]c(C)c(/C(O)=C2\C(=O)C(=O)N(CCN3CCOCC3)C2c2ccccc2OC)c1C` (stereo not drawn), which Potency is on record?
The Potency was inconclusive: 23.1 µM [activator, single point].

With `CC(C)(C)C(=O)NC(=S)NNC(=O)C(c1ccccc1)c1ccccc1` as the compound, how does the Potency read?
The Potency was inconclusive: 16.4 µM [activator, single point].

Which Potency does the source give for `Cc1ccc(NC(=S)NNC(C)(C)C)cc1` here?
The Potency was inconclusive: 29.1 µM [activator, partial curve, poor fit].

With `Cc1ccc(OCC(=O)Nc2cc(S(=O)(=O)N3CCCCC3)ccc2N2CCN(C)CC2)c(C)c1` as the compound, how does the Potency read?
The Potency was inconclusive: 20.6 µM [activator, single point].

With `CC1(OC(=O)c2cccs2)C(=O)C=C2C=C3CCCN3C=C2C1=O` (stereo not drawn) as the compound, how does the Potency read?
Its Potency is inconclusive: 29.1 µM [activator, single point].

Which Potency does the source give for `COc1cc(OC)c(S(=O)(=O)Nc2ccccc2NC(=O)CN2CCOCC2)cc1NC(C)=O` here?
Its Potency is “inactive”.

With `CCOC(=O)c1c(C)oc2c1c(CN1CCN(C(=O)OCC)CC1)c(O)c1ccccc12` as the compound, how does the Potency read?
The Potency was “inactive”.

Which Potency does the source give for `CC1(C)Cc2c(C#N)c(N3CCN(C(=O)c4ccco4)CC3)nc(-c3ccco3)c2CS1` here?
The Potency was inconclusive: 23.1 µM [activator, single point].

Which Potency does the source give for `COCC(C)N1C(=O)Cc2c1nc(N)c1c(N)nc(N3CCN(c4ccccc4F)CC3)c(C#N)c21` (stereo not drawn) here?
Its Potency is inconclusive: 14.6 µM [activator, partial curve].

For `CCC1OC(=O)C[C@H](O)C(C)[C@@H](O[C@@H]2OC(C)C(O)C(N(C)C)C2O)C(CCN2CC(C)CC(C)C2)CC(C)C(=O)/C=C/C(C)=C\[C@@H]1COC1OC(C)C(O)C(OC)C1OC` (stereo partly drawn), which Potency is on record?
Its Potency is “inactive”.

Which Potency does the source give for `COc1nc(-c2ccc3c(c2)OCO3)n(-c2ccc(NC(=O)CSc3ccccc3)cc2)n1` here?
Its Potency is inconclusive: 14.6 µM [activator, partial curve, poor fit].

For `COC(=O)c1cccc(-n2c(C)cc(C=O)c2C)c1C`, which Potency is on record?
The Potency was inconclusive: 25.9 µM [activator, single point].

For `Cc1cccc(NC(=S)NCc2ccccc2Cl)c1C`, which Potency is on record?
Its Potency is inconclusive: 29.1 µM [activator, single point].

With `Cc1ccc(CNC(=O)c2nn(C)c(C)c2[N+](=O)[O-])cc1` as the compound, how does the Potency read?
The Potency was active: 0.517 µM.

Which Potency does the source give for `CCOc1ccccc1CN1CCC(Oc2ccc(C(=O)NCc3ccccn3)cc2)CC1` here?
Its Potency is inconclusive: 20.6 µM [activator, single point].
